The data set has as its system pfPcc1 (Pyrococcus furiosus). As to the kind of experiment: fluorescence polarization. Particulars: 20 mM HEPES pH 7.5, 100 mM NaCl, 2 mM DTT; filter binding 50 nM 32P-tRNA, 1 h, room temperature; FP 50 nM 647-CCA; recombinant protein; protein details: GST removed by TEV; label: 5' Alexa-647. In general terms: Polarisation of emitted light reports the rotation of a fluorescent probe.

Construct, isoform or probe ends are uncertain for at least one entry. No signal at the amounts used counts as a negative.

In the case of CCGCCA [647-CCA], the binding result is “no binding”.

The record behind these values is article PMC7718258.
